Measurements as given in publication PMC5579925.
Results are given in words; binding and its absence hold for the method and conditions named. Binding seen in cells or lysates may run through a third protein. Some binding calls cover weakened binding; strength is not graded here.

The chains behind the UniProt entries cited, without tags or fusion partners.
UniProt Q00987: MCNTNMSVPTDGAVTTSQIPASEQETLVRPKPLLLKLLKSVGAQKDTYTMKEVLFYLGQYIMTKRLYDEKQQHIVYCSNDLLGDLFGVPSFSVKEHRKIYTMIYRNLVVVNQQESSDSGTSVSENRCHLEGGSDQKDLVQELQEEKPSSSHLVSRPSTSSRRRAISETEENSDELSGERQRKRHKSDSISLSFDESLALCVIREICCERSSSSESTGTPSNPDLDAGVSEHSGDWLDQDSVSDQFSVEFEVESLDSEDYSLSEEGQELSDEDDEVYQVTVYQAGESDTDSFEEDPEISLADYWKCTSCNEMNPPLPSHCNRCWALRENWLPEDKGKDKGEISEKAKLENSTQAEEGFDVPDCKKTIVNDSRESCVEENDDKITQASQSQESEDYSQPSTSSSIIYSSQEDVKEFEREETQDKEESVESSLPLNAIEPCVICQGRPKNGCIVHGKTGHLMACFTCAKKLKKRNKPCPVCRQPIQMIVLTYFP

Biological target: T1, N-acetyltransferase 10 (NAT10) (human (endogenous in Huh7)) (UniProt Q9H0A0)
T1 sequence: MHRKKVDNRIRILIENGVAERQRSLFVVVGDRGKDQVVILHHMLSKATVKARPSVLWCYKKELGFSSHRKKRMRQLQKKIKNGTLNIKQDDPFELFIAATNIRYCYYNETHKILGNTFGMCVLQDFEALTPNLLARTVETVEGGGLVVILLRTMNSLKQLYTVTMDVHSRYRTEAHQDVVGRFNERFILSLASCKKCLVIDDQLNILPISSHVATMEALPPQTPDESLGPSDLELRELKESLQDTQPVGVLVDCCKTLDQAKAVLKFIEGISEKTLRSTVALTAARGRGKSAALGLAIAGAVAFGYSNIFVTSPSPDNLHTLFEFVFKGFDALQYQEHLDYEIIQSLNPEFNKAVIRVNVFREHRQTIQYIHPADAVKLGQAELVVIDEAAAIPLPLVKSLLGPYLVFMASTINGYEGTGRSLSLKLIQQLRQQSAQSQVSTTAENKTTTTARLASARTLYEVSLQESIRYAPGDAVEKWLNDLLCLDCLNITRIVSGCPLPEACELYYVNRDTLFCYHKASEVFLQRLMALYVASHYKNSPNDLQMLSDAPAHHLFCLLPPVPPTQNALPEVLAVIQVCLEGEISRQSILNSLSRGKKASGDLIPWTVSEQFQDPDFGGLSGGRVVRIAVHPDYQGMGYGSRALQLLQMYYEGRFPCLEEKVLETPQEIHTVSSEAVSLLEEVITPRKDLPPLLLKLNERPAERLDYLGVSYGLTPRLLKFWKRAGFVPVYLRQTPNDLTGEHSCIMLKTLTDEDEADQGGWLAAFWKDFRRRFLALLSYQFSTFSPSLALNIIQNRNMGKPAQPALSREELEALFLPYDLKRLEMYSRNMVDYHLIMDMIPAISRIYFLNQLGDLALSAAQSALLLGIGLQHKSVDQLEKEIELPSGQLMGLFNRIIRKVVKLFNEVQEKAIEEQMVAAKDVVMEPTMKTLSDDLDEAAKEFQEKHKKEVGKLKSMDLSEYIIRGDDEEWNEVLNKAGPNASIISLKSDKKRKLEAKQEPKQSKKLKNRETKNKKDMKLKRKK
Test: co-IP; Huh7 cell lysates (lysis buffer A: 25 mM Tris-HCl pH 7.5, 100 mM KCl, 1 mM DTT, 2 mM EDTA, 0.1% Nonidet P-40) immunoprecipitated with control IgG or anti-NAT10 antibodies on protein A and G beads, 2 h at 4 °C; precipitates immunoblotted

## Mdm2 (Murine double minute2) (from UniProt Q00987 1-491)
  binding: binds
